# Source: the supplement of paper PMC5355238
# Counter-ions that a name gives are not always drawn. The list shows a part of the results. Many values rest on one well or one pass, so single values are uncertain.
# Test system: Reh
# Assay: S-phase gammaH2AX median, Z-score vs plate median (drug alone); higher = more S-phase DNA damage
# Conditions: MK1775 concentration 0 nM; 10 µM; 4 h
row,SMILES,S-phase gammaH2AX median (Z-score)
1,"CCN1CCCC1CNC(=O)c1cc(S(N)(=O)=O)ccc1OC (single isomer, unassigned; (-)) [(-)-Sulpiride]",-0.0467
2,CN(c1ncccc1CNc1nc(Nc2ccc3c(c2)CC(=O)N3)ncc1C(F)(F)F)S(C)(=O)=O,-0.0182
3,C[N+](C)(C)CCOC(N)=O [Carbachol],0.204
4,COc1ccc(-c2oc3cc(OC)ccc3c2C(=O)c2ccc(C#N)cc2)cc1,0.0329
5,CCN1C(=O)C=CC1=O [N-Ethylmaleimide],0
6,O=C1c2c(O)ccc(O)c2C(=O)c2c(NCCNCCO)ccc(NCCNCCO)c21 [Mitoxantrone],14.7
7,O=C1c2c(O)ccc(O)c2C(=O)c2c(NCCNCCO)ccc(NCCNCCO)c21 [Mitoxantrone Hydrochloride],5.81
8,CCOC(=O)C1=C(C)NC(C)=C(C(=O)OC)C1c1cccc(Cl)c1Cl (centres undefined) [Felodipine],-0.022
9,Cc1nc2sccn2c(=O)c1CCN1CCC(=C(c2ccc(F)cc2)c2ccc(F)cc2)CC1 [Ritanserin],-0.0133
10,Cc1oc(S(=O)(=O)N2CCCCC2)cc1NC(=O)Nc1ccccc1,-0.053
11,COc1cc(Nc2ncc3c(n2)-c2ccc(Cl)cc2C(c2c(F)cccc2OC)=NC3)ccc1C(=O)O [MLN8237 (Alisertib)],-0.0174
12,Cc1ccc(Nc2nccc(N(C)c3ccc4c(C)n(C)nc4c3)n2)cc1S(N)(=O)=O [Pazopanib],-0.12
13,Nc1cc(C(F)(F)F)c(-c2cc(N3CCOCC3)nc(N3CCOCC3)n2)cn1,-0.0615
14,"Cc1c(C(=O)Nc2ccc(N3C[C@@H](C)O[C@@H](C)C3)nc2)cccc1-c1ccc(OC(F)(F)F)cc1 [LDE225 (NVP-LDE225, Erismodegib)]",-0.097
15,CC(C)NNC(=O)c1ccncc1 [Iproniazid phosphate],0.205
16,O=C(O)c1cc(=O)c2ccccc2[nH]1 [Kynurenic acid],-0.198
17,Cc1cnc(NC(=O)Nc2cc(Br)c(C)cc2OC[C@@H]2CNCCO2)cn1,0.501
18,"O=c1cc(N2CCOCC2)oc2c(-c3ccccc3)cccc12 [LY-294,002 hydrochloride]",0.0591
19,O=c1cc(N2CCOCC2)oc2c(-c3ccccc3)cccc12,-0.0824
20,O=C(O)CCCCCCC1C(=O)NC(=O)N1CCC(O)C1CCCCC1 (centres undefined),-0.102
21,CCCCCCCCCCCCCCCCCCNC(=O)OCC(COP(=O)([O-])OCC[n+]1ccsc1)OC (centres undefined),0.36

row,SMILES,S-phase gammaH2AX median (Z-score)
1,N#Cc1ccc(NC(=O)Nc2ccccc2Br)c2n[nH]nc12,-0.036
2,"Clc1ccc(C(c2ccccc2Cl)C(Cl)Cl)cc1 (centres undefined) [1-(2-Chlorophenyl)-1-(4-chlorophenyl)-2,2-dichloroethane]",0.0796
3,c1ccc(-c2nn3c(c2-c2ccnc4cc(OCCN5CCOCC5)ccc24)CCC3)nc1,0.0963
4,C=CCN1CCc2cc(O)c(O)cc2C(c2ccccc2)C1 (centres undefined),-0.0734
5,NCCCS(=O)(=O)O [3-Amino-1-propanesulfonic acid sodium],-0.0175
6,COc1cc2nc(N3CCCN(C)CC3)nc(NC3CCN(Cc4ccccc4)CC3)c2cc1OC,-0.162
7,NC1CONC1=O (racemic) [DL-Cycloserine],0.0699
8,Cc1nc2c([nH]1)c(=O)n(C)c(=O)n2Cc1ccco1 [Furafylline],0
9,CCC1(C)CC(=O)NC1=O (centres undefined) [Ethosuximide],0.132
10,"OC[C@H]1NC[C@@H](O)[C@@H]1O [1,4-Dideoxy-1,4-imino-D-arabinitol]",-0.18
11,COc1cc(CNC(=O)CCCCCCC(C)C)ccc1O [Dihydrocapsaicin],0.0686
12,N#CC[C@H](C1CCCC1)n1cc(-c2ncnc3[nH]ccc23)cn1,0.00425
13,CSc1nc(N)c2ncn([C@@H]3O[C@H](COP(=O)(O)OP(=O)(O)O)[C@@H](O)[C@H]3O)c2n1 [2-Methylthioadenosine diphosphate trisodium],-0.341
14,CCCCS(=N)(=O)CCC(N)C(=O)O [L-Buthionine-sulfoximine],-0.00388
15,COc1cccc(OC)c1OCCNCC1CSc2ccccc2O1 (centres undefined) [Benoxathian hydrochloride],-0.0544
16,CCC(C)(C)C(=O)O[C@H]1C[C@@H](C)C=C2C=C[C@H](C)[C@H](CC[C@@H]3C[C@@H](O)CC(=O)O3)[C@H]21 [Simvastatin (Zocor)],-0.0437
17,Nc1nccc(Oc2ccc(NC(=O)c3c[nH]cc(-c4ccc(F)cc4)c3=O)cc2F)c1Cl,0.118
18,CCN(CC)C(=O)c1ccc(O)c(OC)c1 [Vanillic acid diethylamide],0.161
19,NC1(C(=O)O)CC1 [1-Aminocyclopropanecarboxylic acid hydrochloride],-0.0777
20,NC(=O)Nc1cc(-c2cccc(F)c2)sc1C(=O)N[C@H]1CCCNC1,1.09
21,O=C(c1ccc(F)cc1)C1CCN(CCn2c(=O)[nH]c3ccccc3c2=O)CC1 [Ketanserin tartrate],-0.614

row,SMILES,S-phase gammaH2AX median (Z-score)
1,O=C(O)CCc1ccc(NCc2cccc(Oc3ccccc3)c2)cc1,0.122
2,O=C1NCC2(CCN(CCc3ccccc3)CC2)O1 [Fenspiride hydrochloride],-0.198
3,Cl.N[C@@H](CCC(=O)O)C(=O)O [L-Glutamic acid hydrochloride],0.0283
4,CSC(=N)N [S-Methylisothiourea hemisulfate],-0.0378
5,CCCNC(=O)NS(=O)(=O)c1ccc(Cl)cc1 [Chlorpropamide],-0.033
6,Cc1cnc(Nc2ccc(OCCN3CCCC3)cc2)nc1Nc1cccc(S(=O)(=O)NC(C)(C)C)c1,-0.0135
7,Clc1cccc(Cl)c1NC1=NCCN1 [Clonidine hydrochloride],0.0291
8,CN(C)S(=O)(=O)c1ccc2c(c1)/C(=C/c1cc3c([nH]1)CCCC3)C(=O)N2,-0.111
9,N=C(N)NCCCCNC(=N)N [Arcaine sulfate],-0.00971
10,Cc1csc(-c2nnc(Nc3ccc(Oc4ncccc4-c4ccnc(N)n4)cc3)c3ccccc23)c1,0.104
11,Nc1nc2c(ncn2COC(CO)CO)c(=O)[nH]1 [Ganciclovir],0.0346
12,c1ccc2c(CCNc3ccc(Nc4ccncc4)cc3)c[nH]c2c1,0.0104
13,COc1c(C)cnc(Cn2cnc3c(Cl)nc(N)nc32)c1C,-0.118
14,CC(C)NCC(O)COc1ccc(CC(N)=O)cc1 (centres undefined) [(?)-Atenolol],-0.0485
15,Cc1ccc([C@@H]2O[C@H](CO)[C@@H](O)[C@H](O)[C@H]2O)cc1Cc1ccc(-c2ccc(F)cc2)s1 [Canagliflozin],-0.0622
16,CN1CCN(CC(=O)N2c3ccccc3C(=O)Nc3cccnc32)CC1 [Pirenzepine dihydrochloride],0.0922
17,Oc1cc2c(cc1O)C(c1ccccc1)CNCC2 (centres undefined),-0.0441
18,NC[C@@H]1O[C@H](C23CC4CC(CC(C4)C2)C3)Cc2c1ccc(O)c2O,-0.0757
19,CC1CCN(CC[C@H]2CCCN2S(=O)(=O)c2cccc(O)c2)CC1,-0.133
20,CCC1(c2ccccc2)C(=O)NCNC1=O [Primidone],-0.0118
21,COc1cc(Nc2c(C#N)cnc3cc(OCCCN4CCN(C)CC4)c(OC)cc23)c(Cl)cc1Cl [Bosutinib (SKI-606)],0.168

# As a working copy, part of the list above.
row,SMILES,S-phase gammaH2AX median (Z-score)
9,N=C(N)NCCCCNC(=N)N [Arcaine sulfate],-0.00971
10,Cc1csc(-c2nnc(Nc3ccc(Oc4ncccc4-c4ccnc(N)n4)cc3)c3ccccc23)c1,0.104
11,Nc1nc2c(ncn2COC(CO)CO)c(=O)[nH]1 [Ganciclovir],0.0346

# Single entries from the entries so far.
# CCCNC(=O)NS(=O)(=O)c1ccc(Cl)cc1 [Chlorpropamide] – S-phase gammaH2AX median (Z-score): -0.033
# Cc1csc(-c2nnc(Nc3ccc(Oc4ncccc4-c4ccnc(N)n4)cc3)c3ccccc23)c1 – S-phase gammaH2AX median (Z-score): 0.104
# c1ccc2c(CCNc3ccc(Nc4ccncc4)cc3)c[nH]c2c1 – S-phase gammaH2AX median (Z-score): 0.0104

# (list continues)

row,SMILES,S-phase gammaH2AX median (Z-score)
1,COc1cc2ncnc(Nc3cccc(Br)c3)c2cc1OC,-0.00889
2,CN(C)CCC(c1ccc(Br)cc1)c1ccccn1 (centres undefined) [(?)-Brompheniramine maleate],-0.0777
3,"COc1ccccc1N1CCN(CCCNc2c(C)c(=O)n(C)c(=O)n2C)CC1 [Urapidil, 5-Methyl-]",-0.287
4,O=C(O)/C=C/C(O)c1ccc(Cl)cc1 (centres undefined),0.0237
5,C[C@]12CCC(=O)C=C1CC[C@@H]1[C@@H]2CC[C@@]2(C)[C@H]1CC[C@]2(O)C(=O)CO [Cortexolone],-0.123
6,CO/N=C(\C(=O)N[C@@H]1C(=O)N2C(C(=O)O)=C(COC(C)=O)CS[C@H]12)c1csc(N)n1 [Cefotaxime sodium],0.0233
7,CNC(=O)[C@@H](NC(=O)[C@H](CC(C)C)[C@H](O)C(=O)NO)C(C)(C)C [Marimastat],0.181
8,C[C@]12CC[C@@H]3c4ccc(O)cc4C[C@@H](CCCCCCCCC[S+]([O-])CCCC(F)(F)C(F)(F)F)[C@H]3[C@@H]1CC[C@@H]2O (some centres undefined),-0.0584
9,NC1CCN(O)C1=O (centres undefined),-0.118
10,NC(N)=N[C@@H](CCC(=O)O)C(=O)O [alpha-Guanidinoglutaric acid],-0.00945
11,"O=C(O)CCC(C(=O)O)N1C(=O)c2ccccc2C1=O [L-Glutamic acid, N-phthaloyl-]",-0.0378
12,"Cc1cc(Nc2cc(N3CCN(C)CC3)nc(Sc3ccc(NC(=O)C4CC4)cc3)n2)n[nH]1 [VX-680 (MK-0457, Tozasertib)]",-0.0367
13,Nc1nc(OCc2cc(Br)cs2)c2[nH]cnc2n1 [Lomeguatrib],-0.0476
14,CC(=O)Nc1nnc(S(N)(=O)=O)s1 [Acetazolamide],-0.0777
15,c1cc(CN2CCCCC2)cc(OCCCNc2nc3ccccc3s2)c1,-0.0734
16,CCOC(=O)[C@@H](C)Oc1cccc2c(=O)n(CC(=O)Nc3ccc4c(c3)OCCO4)ccc12,0.0205
17,OC[C@H]1O[C@@H](n2cnc3c(N[C@H]4CC5CCC4C5)ncnc32)[C@H](O)[C@@H]1O (some centres undefined),-0.0504
18,CCN(CC)CCNC(=O)c1ccc(N)cc1 [Procainamide hydrochloride],0.0733
19,COc1ccc2c(c1)c(CC(=O)O)c(C)n2Cc1ccc(F)cc1 [1-(4-Fluorobenzyl)-5-methoxy-2-methylindole-3-acetic acid],-0.0787
20,CCOC(=O)C1=C(C)NC(=S)NC1c1cccc(O)c1 (centres undefined) [Monastrol],0.206
21,CC[C@H]1OC(=O)[C@H](C)[C@@H](O[C@H]2C[C@@](C)(OC)[C@@H](O)[C@H](C)O2)[C@H](C)[C@@H](O[C@@H]2O[C@H](C)C[C@H](N(C)C)[C@H]2O)[C@](C)(O)C[C@@H](C)CN(C)[C@H](C)[C@@H](O)[C@]1(C)O [Azithromycin (Zithromax)],0.00193
